Data on one substance can be found in PMC3499583.

No constants are given. Whether binding was seen depends on the method and setting.

In the assay the target is T1, Semaphorin-7A Sema domain, biotinylated bait (human) (UniProt O75326).
T1 sequence (chain, biotin on the C-terminal biotinylatable peptide (enzymatic, BirA)): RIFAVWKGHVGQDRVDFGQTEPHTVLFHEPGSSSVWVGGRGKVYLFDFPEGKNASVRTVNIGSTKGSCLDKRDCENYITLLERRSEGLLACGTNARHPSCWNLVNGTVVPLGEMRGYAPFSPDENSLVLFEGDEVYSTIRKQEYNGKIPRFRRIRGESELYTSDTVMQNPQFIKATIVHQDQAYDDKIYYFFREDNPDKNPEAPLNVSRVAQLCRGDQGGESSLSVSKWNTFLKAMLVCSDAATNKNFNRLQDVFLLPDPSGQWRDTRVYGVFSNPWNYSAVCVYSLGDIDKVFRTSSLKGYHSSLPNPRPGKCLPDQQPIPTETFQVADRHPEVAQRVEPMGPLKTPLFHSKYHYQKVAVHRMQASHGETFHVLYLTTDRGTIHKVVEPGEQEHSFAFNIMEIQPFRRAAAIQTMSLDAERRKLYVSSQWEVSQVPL
Description: AVEXIS (avidity-based extracellular interaction screen); biotinylated baits (dialysed against HBS) immobilised in streptavidin-coated 96-well plates; normalised pentameric beta-lactamase preys added for 1 hour at room temperature, washed in HBS plus 0.1% Tween-20; nitrocefin, absorbance at 485 nm; only the target purified.

In the case of “MTRAP ectodomain, pentameric beta-lactamase-tagged prey (P. falciparum) (domain or fragment)”, the binding entry is “no binding”.
